The other results are listed elsewhere or left out.
The targets below were run with c1cn2cc(-c3ccc4cn[nH]c4c3)nc(Nc3ccc(N4CCOCC4)cc3)c2n1 [entospletinib] (assay: log2 fold change, soluble protein after heating vs DMSO (PISA); higher = thermal stabilisation; K562 cells, 10 uM, 30 min; active = over 0.2 and 3.5 SD of the protein, either way, in both replicates (recomputed)).
Procedure, shortened: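 Aliquots of K562 cells (2×10^6 cells/mL) treated with 10 μM compound for 30 min were heated for 3 min over 48°C-58°C. After pooling and extraction in PBS with 0.5% NP-40 at 4°C, soluble protein from a 21,000xg, 90 min spin was quantified by TMTpro 16plex LC-MS/MS with channel sums equalised. Thermal stability is expressed against control samples, from duplicates, as a log2 fold change.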

By UniProt entry, the sequences of proteins in these tests, tags left out. Where a name states a change or a piece, a line headed by the entry shows the natural chain unless it says otherwise.
UniProt Q15398: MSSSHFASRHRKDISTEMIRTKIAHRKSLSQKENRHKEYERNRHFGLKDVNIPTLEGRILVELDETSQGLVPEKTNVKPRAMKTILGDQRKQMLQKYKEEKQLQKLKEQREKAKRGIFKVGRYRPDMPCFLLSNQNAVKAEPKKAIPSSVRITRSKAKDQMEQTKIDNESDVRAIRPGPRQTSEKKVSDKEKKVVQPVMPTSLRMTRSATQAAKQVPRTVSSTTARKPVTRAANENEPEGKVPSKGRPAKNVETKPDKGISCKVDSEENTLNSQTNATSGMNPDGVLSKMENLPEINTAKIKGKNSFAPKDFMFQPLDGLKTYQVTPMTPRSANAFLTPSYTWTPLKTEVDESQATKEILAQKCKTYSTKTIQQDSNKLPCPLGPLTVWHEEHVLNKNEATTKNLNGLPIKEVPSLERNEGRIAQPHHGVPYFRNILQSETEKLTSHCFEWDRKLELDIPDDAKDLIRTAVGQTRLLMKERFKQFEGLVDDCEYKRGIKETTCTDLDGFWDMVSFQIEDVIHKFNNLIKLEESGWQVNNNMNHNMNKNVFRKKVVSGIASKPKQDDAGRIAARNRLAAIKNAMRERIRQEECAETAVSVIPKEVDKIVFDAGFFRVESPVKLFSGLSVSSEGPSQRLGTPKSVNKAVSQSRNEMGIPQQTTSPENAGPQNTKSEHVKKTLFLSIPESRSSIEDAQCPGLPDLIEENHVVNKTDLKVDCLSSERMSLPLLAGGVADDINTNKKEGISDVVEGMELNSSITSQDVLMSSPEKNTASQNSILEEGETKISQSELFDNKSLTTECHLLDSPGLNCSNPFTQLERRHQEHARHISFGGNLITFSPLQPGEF
UniProt Q96HY6: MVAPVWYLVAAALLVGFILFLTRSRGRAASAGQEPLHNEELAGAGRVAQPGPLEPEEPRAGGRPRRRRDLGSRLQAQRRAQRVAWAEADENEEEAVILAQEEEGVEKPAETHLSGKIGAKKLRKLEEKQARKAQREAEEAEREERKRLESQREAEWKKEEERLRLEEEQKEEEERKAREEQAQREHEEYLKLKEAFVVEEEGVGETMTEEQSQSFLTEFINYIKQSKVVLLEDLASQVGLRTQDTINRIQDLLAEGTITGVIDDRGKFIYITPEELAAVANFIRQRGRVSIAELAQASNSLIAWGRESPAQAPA
UniProt Q6E0U4: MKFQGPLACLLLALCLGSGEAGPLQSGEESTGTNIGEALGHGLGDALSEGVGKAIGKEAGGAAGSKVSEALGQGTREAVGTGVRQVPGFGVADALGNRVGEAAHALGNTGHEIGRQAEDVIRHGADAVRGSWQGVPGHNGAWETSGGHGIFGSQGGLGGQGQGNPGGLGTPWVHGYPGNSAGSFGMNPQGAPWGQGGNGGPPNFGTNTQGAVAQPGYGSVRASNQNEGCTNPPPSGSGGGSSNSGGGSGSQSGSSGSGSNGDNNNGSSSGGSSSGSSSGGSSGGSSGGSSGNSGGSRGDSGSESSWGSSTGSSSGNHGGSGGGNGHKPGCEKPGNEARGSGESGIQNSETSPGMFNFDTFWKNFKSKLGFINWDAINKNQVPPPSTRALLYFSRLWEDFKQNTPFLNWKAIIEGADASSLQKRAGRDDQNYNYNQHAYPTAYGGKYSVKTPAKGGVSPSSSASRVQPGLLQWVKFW
UniProt Q92841: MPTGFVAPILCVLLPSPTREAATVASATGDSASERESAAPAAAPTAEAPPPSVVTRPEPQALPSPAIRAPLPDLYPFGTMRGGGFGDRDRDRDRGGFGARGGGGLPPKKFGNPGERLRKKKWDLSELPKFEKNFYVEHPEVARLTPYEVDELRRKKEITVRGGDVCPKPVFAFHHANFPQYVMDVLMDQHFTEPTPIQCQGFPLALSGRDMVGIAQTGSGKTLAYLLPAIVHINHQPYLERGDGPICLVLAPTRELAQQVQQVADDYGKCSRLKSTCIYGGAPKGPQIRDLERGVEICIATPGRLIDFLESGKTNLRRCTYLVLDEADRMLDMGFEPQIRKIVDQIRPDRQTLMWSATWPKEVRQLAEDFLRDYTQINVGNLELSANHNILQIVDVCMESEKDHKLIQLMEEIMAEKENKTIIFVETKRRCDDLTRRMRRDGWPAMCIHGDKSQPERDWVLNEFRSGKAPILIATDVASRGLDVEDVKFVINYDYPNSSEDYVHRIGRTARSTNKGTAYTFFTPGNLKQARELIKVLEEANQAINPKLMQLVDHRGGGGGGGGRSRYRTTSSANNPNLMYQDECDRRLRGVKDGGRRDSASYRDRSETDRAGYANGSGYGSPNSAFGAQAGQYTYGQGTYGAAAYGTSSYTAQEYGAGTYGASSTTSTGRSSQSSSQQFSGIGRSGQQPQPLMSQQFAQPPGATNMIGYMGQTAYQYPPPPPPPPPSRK
UniProt Q08211, whole entry, looked up: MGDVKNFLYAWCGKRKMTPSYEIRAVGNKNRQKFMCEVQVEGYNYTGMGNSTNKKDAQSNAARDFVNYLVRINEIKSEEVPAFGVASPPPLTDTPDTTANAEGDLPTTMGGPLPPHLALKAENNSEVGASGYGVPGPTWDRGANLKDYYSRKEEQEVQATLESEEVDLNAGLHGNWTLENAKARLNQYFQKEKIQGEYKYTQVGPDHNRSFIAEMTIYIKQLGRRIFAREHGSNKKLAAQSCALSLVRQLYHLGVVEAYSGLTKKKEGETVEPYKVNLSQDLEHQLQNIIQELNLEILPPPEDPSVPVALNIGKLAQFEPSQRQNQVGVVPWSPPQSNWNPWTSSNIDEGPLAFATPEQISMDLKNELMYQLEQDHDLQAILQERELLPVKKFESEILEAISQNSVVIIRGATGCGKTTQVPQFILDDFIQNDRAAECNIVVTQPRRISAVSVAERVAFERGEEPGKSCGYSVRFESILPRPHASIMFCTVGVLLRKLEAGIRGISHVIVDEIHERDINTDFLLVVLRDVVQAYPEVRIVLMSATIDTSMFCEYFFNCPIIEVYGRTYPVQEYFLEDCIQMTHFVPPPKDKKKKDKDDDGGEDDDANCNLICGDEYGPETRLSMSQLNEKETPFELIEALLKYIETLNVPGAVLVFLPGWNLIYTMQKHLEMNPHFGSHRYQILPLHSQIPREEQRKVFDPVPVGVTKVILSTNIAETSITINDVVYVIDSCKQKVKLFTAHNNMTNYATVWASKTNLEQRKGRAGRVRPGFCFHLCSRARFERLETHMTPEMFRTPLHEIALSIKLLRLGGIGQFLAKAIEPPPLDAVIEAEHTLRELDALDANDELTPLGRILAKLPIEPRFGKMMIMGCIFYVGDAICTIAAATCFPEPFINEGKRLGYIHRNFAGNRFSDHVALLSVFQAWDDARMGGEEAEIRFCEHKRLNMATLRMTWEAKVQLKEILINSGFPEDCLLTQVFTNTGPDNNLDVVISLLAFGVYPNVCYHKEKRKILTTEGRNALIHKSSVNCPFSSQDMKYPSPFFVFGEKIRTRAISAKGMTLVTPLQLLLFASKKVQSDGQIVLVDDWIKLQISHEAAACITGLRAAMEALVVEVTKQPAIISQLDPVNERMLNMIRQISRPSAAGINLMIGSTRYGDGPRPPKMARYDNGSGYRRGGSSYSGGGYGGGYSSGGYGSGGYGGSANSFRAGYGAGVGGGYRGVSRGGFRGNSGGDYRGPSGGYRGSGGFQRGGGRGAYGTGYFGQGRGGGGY

log2 fold change, inactive:
DLGAP5 (UniProt Q15398) 0.01
DDRGK1 (UniProt Q96HY6) 0.01
DMKN (UniProt Q6E0U4) -0.132
DDX17 (UniProt Q92841) 0.06
DHX9 (UniProt Q08211) -0.146
